Earlier results as cited in patent US5776959A, “Anticonvulsant and anxiolytic lactam and thiolactam derivatives” (priority 1995, dated 1998).
At least one structure is not confirmed: it was looked up by name or label, or the drawing left a doubt.

Tested on: anticonvulsant, anti-epileptic, sedative action, ingestion of alcohol
Conditions: in vivo; cited from earlier work

Compound: CCCCC(=O)NC1CCOC1=O (stereo not drawn) [α-n-butylcarbonyl-amino-γ-butyrolactone]
- reported pharmacological action: anticonvulsant, anti-epileptic, sedative action and ability to inhibit the ingestion of alcohol
